From paper PMC4764983
These are yes or no findings as the source states them, for the method shown. For some of these results: In cells and extracts the contact can be indirect. Some binding calls cover weakened binding; strength is not graded here.

Amino acid sequences for entries named in this document (tags omitted).
UniProt O09106: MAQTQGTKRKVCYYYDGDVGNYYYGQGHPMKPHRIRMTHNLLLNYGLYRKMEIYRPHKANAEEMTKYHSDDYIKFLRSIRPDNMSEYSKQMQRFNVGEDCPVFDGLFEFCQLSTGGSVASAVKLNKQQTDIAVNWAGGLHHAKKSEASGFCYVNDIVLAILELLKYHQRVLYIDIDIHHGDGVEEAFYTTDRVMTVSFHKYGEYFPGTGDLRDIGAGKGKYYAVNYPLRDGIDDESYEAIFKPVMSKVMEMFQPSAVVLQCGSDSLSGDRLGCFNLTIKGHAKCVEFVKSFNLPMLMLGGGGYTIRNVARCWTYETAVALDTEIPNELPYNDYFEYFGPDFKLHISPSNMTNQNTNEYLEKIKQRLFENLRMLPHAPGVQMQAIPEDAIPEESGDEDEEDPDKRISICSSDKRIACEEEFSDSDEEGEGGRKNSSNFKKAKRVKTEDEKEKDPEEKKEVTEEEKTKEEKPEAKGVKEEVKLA
UniProt P27782: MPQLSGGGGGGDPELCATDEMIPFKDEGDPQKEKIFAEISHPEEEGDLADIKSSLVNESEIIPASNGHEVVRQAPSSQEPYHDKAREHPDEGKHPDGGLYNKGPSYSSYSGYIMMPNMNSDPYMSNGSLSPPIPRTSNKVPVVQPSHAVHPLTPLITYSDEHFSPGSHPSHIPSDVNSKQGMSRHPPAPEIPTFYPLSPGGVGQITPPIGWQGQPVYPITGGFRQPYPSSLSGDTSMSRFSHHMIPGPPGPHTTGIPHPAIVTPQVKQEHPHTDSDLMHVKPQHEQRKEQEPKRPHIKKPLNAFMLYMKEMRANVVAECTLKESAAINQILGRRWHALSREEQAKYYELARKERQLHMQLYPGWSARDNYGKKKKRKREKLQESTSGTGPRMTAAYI
UniProt Q02248: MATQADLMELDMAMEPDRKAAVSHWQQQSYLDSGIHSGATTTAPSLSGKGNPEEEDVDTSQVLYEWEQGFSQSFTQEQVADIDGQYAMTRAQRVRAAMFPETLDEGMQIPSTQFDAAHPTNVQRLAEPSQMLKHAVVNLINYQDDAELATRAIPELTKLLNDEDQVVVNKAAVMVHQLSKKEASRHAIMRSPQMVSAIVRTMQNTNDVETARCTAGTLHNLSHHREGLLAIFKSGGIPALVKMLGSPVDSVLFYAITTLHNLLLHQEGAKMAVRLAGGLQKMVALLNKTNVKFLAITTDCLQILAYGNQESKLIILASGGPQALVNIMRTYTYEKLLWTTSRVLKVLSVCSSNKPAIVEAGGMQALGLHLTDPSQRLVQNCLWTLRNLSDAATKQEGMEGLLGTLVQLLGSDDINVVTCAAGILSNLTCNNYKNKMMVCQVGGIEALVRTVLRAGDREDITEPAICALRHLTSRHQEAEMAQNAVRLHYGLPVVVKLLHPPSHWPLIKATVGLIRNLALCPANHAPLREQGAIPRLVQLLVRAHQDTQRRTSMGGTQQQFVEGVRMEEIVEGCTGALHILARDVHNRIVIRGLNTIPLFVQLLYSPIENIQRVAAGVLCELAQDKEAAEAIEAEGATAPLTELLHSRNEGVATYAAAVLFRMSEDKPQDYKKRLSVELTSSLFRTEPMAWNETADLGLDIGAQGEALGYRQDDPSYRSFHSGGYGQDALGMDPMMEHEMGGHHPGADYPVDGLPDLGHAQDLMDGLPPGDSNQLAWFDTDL

Columns and labels:
[1] = biological target: histone deacetylase 1 (HDAC1), endogenous mouse (mouse (endogenous in C3H10T1/2 and STO)) (UniProt O09106); assay: proximity ligation; Duolink II fluorescence PLA on C3H10T1/2^pLIVc and C3H10T1/2^SS18-SSX1-V5 cells fixed in 4% paraformaldehyde and permeabilised with 0.3% triton; pairs of primary antibodies from two species; foci counted in DAPI-stained nuclei; in some panels cells treated beforehand with recombinant Wnt3a, 250 nM TSA for 16 hrs, 5 uM DAPI for 30 min, or LEF-1 siRNA
[2] = biological target: lymphoid enhancer-binding factor 1 (LEF-1), endogenous mouse (mouse (endogenous in C3H10T1/2 and STO)) (UniProt P27782); assay: as above
[3] = biological target: histone deacetylase 1 (HDAC1), endogenous mouse (mouse (endogenous in C3H10T1/2 and STO)) (UniProt O09106); assay: native gel or EMSA; cleared lysates of C3H10T1/2^pLIVc and C3H10T1/2^SS18-SSX1-V5 cells on a 5% native gel, blotted and probed with anti-TCF4, anti-HDAC, anti-V5 and anti-β-catenin; co-migration

Row | binding [1] | binding [2] | binding [3] | Substance
1 | binds | binds | binds | β-catenin, endogenous mouse (from UniProt Q02248 1-781)
2 | – | binds | – | histone deacetylase 1 (HDAC1), endogenous mouse (from UniProt O09106 1-482) (enzyme)
